Some of the results follow. The calls rarely recur for the same compound in another form.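 Kinases were expressed as nanoluciferase fusions in K562 cells and luminescence was read every 4 h between 2 and 18 h as percent of control, DMSO set to 100% and a positive control to 0%. A time point counts as decreased when the signal drops significantly (2 sigma). The hit call is the authors' own, does not follow from the count of time points alone, and its rule is not shown.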
What was measured:
Experiment in all cases: kinase-Nluc reporter destabilization hit call (1 = scored as downregulated) (binary); higher = compound decreases kinase abundance
Conditions in all cases: K562; 2-18 h
MAPK1 = MAPK1 (UniProt P28482)
MAPK4 = MAPK4 (UniProt P31152)
MAPKAPK2 = MAPKAPK2 (UniProt P49137)
MKNK1 = MKNK1 (UniProt Q9BUB5)
NTRK2 = NTRK2 (UniProt Q16620)
NTRK3 = NTRK3 (UniProt Q16288)
PAK4 = PAK4 (UniProt O96013)
PBK = PBK (UniProt Q96KB5)
PDGFRB = PDGFRB (UniProt P09619)
PDK1 = PDK1 (UniProt Q15118)

Chains of the proteins cited; added tags and fusions are not shown. Lines headed by an entry give the natural chain unless they say otherwise; changes in a name come on top.
UniProt P28482, whole entry: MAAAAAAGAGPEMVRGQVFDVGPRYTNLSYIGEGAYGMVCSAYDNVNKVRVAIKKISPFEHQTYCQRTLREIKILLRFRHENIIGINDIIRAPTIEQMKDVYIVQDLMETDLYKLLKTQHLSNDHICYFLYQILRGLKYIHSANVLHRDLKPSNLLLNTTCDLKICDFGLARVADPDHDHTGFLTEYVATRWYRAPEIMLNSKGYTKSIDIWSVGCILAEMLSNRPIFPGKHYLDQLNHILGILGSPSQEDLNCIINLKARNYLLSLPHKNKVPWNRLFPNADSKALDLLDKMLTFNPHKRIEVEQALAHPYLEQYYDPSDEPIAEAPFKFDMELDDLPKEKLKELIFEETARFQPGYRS
UniProt P31152, whole entry: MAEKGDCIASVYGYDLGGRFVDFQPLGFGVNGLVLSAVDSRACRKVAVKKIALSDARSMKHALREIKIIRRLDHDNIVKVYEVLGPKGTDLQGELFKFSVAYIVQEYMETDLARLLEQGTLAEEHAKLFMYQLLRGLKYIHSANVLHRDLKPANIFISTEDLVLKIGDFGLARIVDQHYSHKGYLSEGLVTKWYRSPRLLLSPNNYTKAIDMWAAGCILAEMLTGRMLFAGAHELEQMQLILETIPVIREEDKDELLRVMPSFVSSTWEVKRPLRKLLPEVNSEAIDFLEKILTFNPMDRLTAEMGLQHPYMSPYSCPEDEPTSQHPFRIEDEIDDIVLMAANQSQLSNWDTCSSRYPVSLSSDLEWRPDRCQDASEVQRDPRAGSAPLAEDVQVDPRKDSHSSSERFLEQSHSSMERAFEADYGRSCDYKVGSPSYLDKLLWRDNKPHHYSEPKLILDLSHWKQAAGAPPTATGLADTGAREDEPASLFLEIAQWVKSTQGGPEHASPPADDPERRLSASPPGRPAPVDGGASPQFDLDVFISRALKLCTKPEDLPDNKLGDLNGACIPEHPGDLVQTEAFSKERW
UniProt P49137, whole entry, looked up: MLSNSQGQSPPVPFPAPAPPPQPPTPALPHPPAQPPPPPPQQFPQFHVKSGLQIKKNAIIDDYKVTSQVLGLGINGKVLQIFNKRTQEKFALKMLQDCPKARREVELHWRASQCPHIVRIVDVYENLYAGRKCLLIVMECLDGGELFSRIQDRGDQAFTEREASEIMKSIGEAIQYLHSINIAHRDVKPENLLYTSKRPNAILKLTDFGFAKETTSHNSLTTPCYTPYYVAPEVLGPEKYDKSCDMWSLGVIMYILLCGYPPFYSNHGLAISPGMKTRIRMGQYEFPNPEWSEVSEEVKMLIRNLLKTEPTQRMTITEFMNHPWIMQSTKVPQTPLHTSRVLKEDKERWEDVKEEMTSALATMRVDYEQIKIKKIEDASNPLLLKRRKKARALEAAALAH
UniProt Q9BUB5: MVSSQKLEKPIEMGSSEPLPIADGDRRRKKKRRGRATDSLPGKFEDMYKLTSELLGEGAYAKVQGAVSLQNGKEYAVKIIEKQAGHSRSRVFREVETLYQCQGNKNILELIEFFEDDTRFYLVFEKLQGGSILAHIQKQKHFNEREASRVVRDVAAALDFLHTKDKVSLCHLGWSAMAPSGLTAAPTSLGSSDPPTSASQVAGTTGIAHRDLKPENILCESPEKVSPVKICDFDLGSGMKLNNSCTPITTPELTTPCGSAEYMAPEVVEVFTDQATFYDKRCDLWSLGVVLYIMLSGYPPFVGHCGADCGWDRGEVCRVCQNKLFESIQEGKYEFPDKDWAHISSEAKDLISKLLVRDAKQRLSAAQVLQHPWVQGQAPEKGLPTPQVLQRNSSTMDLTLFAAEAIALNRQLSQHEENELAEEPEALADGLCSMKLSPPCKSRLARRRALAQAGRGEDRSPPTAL
UniProt Q16620, whole entry, looked up: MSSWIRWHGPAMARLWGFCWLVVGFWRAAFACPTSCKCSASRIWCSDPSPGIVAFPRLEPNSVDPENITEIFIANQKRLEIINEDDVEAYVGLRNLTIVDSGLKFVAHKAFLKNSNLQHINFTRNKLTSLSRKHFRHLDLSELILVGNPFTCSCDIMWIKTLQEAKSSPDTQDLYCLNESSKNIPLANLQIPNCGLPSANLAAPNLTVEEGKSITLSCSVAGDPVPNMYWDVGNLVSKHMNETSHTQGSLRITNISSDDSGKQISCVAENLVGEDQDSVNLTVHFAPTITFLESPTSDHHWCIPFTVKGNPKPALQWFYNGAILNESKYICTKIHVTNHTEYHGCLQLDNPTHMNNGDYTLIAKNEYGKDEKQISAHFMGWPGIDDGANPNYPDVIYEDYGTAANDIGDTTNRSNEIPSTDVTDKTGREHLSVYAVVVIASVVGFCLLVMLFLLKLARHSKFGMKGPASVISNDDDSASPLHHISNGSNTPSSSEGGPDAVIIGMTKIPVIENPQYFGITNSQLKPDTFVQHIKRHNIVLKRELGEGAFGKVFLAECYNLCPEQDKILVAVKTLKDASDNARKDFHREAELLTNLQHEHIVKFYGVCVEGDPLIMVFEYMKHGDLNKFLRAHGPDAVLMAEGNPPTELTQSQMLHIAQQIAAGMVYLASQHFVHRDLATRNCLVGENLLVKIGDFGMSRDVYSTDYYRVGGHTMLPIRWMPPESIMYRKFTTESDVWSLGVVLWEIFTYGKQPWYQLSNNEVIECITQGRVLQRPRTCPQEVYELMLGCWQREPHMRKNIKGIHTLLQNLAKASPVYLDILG
UniProt Q16288, whole entry, looked up: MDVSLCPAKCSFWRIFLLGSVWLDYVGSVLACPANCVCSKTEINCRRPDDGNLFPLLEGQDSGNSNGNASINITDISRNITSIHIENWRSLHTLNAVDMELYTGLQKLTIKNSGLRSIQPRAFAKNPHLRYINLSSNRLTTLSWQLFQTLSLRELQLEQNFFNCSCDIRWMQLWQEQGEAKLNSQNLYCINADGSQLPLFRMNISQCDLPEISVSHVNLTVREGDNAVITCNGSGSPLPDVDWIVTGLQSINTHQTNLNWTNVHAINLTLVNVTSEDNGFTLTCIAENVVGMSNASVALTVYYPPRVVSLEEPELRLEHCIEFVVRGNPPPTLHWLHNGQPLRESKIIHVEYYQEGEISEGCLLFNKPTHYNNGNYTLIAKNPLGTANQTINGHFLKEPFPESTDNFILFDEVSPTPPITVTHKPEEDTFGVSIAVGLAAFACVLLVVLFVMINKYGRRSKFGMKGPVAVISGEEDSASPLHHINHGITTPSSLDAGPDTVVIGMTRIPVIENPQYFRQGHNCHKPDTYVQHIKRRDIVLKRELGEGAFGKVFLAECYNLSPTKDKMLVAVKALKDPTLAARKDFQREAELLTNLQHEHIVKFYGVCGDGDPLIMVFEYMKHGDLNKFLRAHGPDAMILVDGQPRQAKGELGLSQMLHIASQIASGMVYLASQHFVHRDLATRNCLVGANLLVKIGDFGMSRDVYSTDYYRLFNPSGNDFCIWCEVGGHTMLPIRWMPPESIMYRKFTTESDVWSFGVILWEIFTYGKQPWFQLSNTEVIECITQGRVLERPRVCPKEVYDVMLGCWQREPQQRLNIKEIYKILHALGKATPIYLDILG
UniProt O96013: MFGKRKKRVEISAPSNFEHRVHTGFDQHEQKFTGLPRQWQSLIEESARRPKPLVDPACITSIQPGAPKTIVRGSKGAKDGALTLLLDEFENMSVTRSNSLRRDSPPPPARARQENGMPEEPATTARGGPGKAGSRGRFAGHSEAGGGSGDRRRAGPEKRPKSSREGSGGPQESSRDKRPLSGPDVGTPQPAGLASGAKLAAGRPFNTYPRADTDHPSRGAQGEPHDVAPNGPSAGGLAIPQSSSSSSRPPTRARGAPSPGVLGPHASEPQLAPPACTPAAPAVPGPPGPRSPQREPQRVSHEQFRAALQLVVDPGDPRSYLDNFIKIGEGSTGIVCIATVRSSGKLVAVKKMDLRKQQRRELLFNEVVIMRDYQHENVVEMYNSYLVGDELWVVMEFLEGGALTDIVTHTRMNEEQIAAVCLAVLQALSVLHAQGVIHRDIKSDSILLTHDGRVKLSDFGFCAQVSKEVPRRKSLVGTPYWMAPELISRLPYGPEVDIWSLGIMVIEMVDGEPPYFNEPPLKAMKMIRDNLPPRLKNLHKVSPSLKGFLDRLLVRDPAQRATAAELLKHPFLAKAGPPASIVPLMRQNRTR
UniProt Q96KB5: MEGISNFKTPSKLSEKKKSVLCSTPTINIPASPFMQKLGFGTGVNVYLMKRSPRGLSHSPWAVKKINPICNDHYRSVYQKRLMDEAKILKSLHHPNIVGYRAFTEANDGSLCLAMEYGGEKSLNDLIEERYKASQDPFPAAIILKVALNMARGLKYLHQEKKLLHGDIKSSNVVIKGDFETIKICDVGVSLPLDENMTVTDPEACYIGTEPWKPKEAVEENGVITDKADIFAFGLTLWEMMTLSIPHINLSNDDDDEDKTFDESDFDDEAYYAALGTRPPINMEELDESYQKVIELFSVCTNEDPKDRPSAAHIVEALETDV
UniProt P09619, whole entry: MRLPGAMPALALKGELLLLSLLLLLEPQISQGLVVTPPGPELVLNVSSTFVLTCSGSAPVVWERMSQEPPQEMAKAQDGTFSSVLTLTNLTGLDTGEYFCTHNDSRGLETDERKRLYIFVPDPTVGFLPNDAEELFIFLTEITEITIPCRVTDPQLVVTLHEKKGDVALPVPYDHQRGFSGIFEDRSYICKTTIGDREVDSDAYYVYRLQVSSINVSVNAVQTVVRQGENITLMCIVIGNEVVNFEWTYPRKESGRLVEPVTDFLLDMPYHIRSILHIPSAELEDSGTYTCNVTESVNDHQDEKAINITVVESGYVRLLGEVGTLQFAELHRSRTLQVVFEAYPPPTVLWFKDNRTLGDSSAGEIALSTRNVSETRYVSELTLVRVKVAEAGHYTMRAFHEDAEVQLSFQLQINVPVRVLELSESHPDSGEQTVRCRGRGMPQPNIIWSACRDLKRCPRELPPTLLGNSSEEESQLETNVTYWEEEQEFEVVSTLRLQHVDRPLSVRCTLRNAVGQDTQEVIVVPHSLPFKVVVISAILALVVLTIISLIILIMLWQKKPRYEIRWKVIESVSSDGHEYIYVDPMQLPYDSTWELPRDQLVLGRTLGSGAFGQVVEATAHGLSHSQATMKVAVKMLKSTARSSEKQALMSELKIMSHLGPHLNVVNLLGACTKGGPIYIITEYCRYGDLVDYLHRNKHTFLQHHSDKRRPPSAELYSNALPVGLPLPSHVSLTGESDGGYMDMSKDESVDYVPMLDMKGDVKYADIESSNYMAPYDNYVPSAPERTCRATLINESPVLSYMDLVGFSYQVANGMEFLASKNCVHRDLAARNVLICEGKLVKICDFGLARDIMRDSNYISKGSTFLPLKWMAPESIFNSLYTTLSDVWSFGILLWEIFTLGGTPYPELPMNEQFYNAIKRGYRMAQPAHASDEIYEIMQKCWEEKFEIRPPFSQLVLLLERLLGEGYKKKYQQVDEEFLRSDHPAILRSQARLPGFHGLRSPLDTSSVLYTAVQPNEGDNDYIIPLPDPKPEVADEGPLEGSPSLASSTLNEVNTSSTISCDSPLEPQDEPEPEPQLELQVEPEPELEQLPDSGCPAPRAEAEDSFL
UniProt Q15118, whole entry, looked up: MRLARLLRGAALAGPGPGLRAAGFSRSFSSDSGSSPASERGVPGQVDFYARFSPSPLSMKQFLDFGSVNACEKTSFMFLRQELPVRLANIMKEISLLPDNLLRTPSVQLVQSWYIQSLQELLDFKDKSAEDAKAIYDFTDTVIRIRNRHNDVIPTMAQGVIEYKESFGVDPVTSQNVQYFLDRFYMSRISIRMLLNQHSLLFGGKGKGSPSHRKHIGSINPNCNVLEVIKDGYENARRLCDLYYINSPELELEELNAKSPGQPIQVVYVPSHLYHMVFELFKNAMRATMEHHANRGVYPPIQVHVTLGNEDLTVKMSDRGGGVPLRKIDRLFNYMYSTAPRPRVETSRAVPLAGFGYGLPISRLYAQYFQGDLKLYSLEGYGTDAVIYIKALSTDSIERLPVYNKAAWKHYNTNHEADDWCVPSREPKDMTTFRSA

Measured: kinase-Nluc reporter destabilization hit call

C=CC(=O)Nc1ccc(CN(C(=O)Nc2c(Cl)c(OC)cc(OC)c2Cl)c2cc(Nc3ccc(N4CCN(C)CC4)cc3)ncn2)cc1 (10 µM)
inactive: MAPK1 = 0 | MAPK4 = 0 | MAPKAPK2 = 0 | MKNK1 = 0 | NTRK2 = 0 | NTRK3 = 0 | PAK4 = 0 | PBK 0 | PDGFRB 0 | PDK1 = 0

Fc1ccc(-c2nc(-c3ccccc3F)[nH]c2-c2ccncc2)cc1 (2.5 µM)
inactive: MAPK1 = 0 | MAPK4 = 0 | MAPKAPK2 = 0 | MKNK1 = 0 | NTRK2 = 0 | NTRK3 = 0 | PAK4 = 0 | PBK 0 | PDGFRB 0 | PDK1 = 0

O=c1oc2cc(O)ccc2c2ccccc12 [Urolithin B] (10 µM)
inactive: MAPK1 = 0 | MAPK4 = 0 | MAPKAPK2 = 0 | MKNK1 = 0 | NTRK2 = 0 | NTRK3 = 0 | PAK4 = 0 | PBK 0 | PDGFRB 0 | PDK1 = 0

COc1ccc([C@@H]2CC(=O)c3c(O)cc(O)cc3O2)cc1O [Hesperetin] (10 µM)
inactive: MAPK1 = 0 | MAPK4 = 0 | MAPKAPK2 = 0 | MKNK1 = 0 | NTRK2 = 0 | NTRK3 = 0 | PAK4 = 0 | PBK 0 | PDGFRB 0 | PDK1 = 0

CCOc1ccc(C(=O)Nc2ncc([N+](=O)[O-])s2)cc1 (10 µM)
inactive: MAPK1 = 0 | MAPK4 = 0 | MAPKAPK2 = 0 | MKNK1 = 0 | NTRK2 = 0 | NTRK3 = 0 | PAK4 = 0 | PBK 0 | PDGFRB 0 | PDK1 = 0

OCCNC1CCCc2c1[nH]c1ccc(-c3ccccc3)cc21 (stereo not given) (2.5 µM)
inactive: MAPK1 = 0 | MAPK4 = 0 | MAPKAPK2 = 0 | MKNK1 = 0 | NTRK2 = 0 | NTRK3 = 0 | PAK4 = 0 | PBK 0 | PDGFRB 0 | PDK1 = 0
